According to the supplement of paper PMC8166895:
Counter-ions that a name gives are not always drawn. The list shows a part of the results. Most values lie at the level of the controls, where differences are scatter.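 Melting temperature was read by differential scanning fluorimetry in a single-replicate pilot screen of a library of approved drugs and clinical or known-target compounds. Compounds raising the melting point by at least 2 °C were the top stabilizing hits, and negative shifts mean destabilization.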

Tested on: SARS-CoV-2 main protease (Mpro, nsp5)
Experiment: thermal shift ΔTm of Mpro relative to plate average Tm; higher = stronger thermal stabilization of Mpro (binding)
Conditions: 10 µM; protein concentration 1 µM

SMILES | thermal shift ΔTm of Mpro
COc1ccc(CNC(=O)Nc2ncc([N+](=O)[O-])s2)cc1 | 0.153 °C
C=CC1=C(C(=O)O)N2C(=O)[C@@H](NC(=O)/C(=N\OCC(=O)O)c3csc(N)n3)[C@H]2SC1 [Cefixime] | 0.0337 °C
CN1C(=O)CCS(=O)(=O)C1c1ccc(Cl)cc1 (configuration not stated) [Chlormezanone] | 0.126 °C
Cc1cc(-n2c(=O)[nH]c(=O)n(C)c2=O)ccc1Oc1ccc(SC(F)(F)F)cc1 [Toltrazuril] | 0.067 °C
O=C(O)Cc1ccc(O)c([N+](=O)[O-])c1 [4-Hydroxy-3-nitrophenylacetic acid] | 0.0408 °C
Cc1ccccc1N1C(=O)c2cc(S(N)(=O)=O)c(Cl)cc2NC1C (configuration not stated) [Metolazone] | 0.19 °C
COc1cc(C)[nH]c(=O)c1CNC(=O)c1c(C)n([C@H](C)C2CCOCC2)c2ccccc12 | -0.0989 °C
[I-].[K+] [Potassium Iodide] | 0.0246 °C
CC(=O)OC1C2CCC3C(C)(O)C4C5OC5C(C)(C)C4(O)C(O)CC13CC2(C)O (configuration not stated) [Rhodojaponin V] | -0.0617 °C
O=C(Nc1ccc(-c2ccnc(Nc3ccc(N4CCOCC4)cc3)n2)cc1)C1CCCN1 (configuration not stated) | -0.164 °C
COc1nc(-c2ccc3c(c2)OCO3)n(-c2ccc(NC(=O)CSc3ccccc3)cc2)n1 [SecinH3] | -0.0598 °C
COc1ccc2[nH]c([S+]([O-])Cc3ncc(C)c(OC)c3C)nc2c1 (configuration not stated) [Omeprazole] | 0.0474 °C
COc1ccc(-c2ccccc2)cc1NS(=O)(=O)c1cc(Cl)cc(Cl)c1O | 0.0886 °C
O=P1(N(CCCl)CCCl)NCCCO1 (configuration not stated) [Cyclophosphamide Monohydrate] | 0.023 °C
c1ccc2c(c1)sc1ccccc12 [Dibenzothiophene] | 0.00252 °C
NC(=S)N/N=C/c1ncccc1N [Triapine] | -0.233 °C
Nc1cccc2c1CN(C1CCC(=O)NC1=O)C2=O (configuration not stated) [Lenalidomide (CC-5013)] | -0.138 °C
COc1cccc(CNc2ccc(S(=O)(=O)Nc3nc4ccccc4s3)cc2)c1O | -0.03 °C
O=S(=O)(O)CCCS(=O)(=O)O [Eprodisate disodium] | -0.182 °C
C[C@H](Oc1cc(-c2cnn(C3CCNCC3)c2)cnc1N)c1c(Cl)ccc(F)c1Cl [(S)-crizotinib] | -0.395 °C
CN(C)CCOC(=O)COc1ccc(Cl)cc1 [Meclofenoxate (Centrophenoxine) HCl] | -0.0506 °C
Brc1c(NC2=NCCN2)ccc2nccnc12 [Brimonidine Tartrate] | 0.419 °C
CC[C@@H]1CN2CC[C@@]3(C(=O)Nc4ccccc43)[C@@H]2C[C@@H]1/C(=C\OC)C(=O)OC [Corynoxine] | -0.0625 °C
CCOP(=S)(OCC)Oc1nc(Cl)c(Cl)cc1Cl [Clorpyrifos] | 0.221 °C
CN(C)c1ccc2c(c1)Sc1cc(N(C)C)ccc1N2 [TRx0237 mesylate] | 0.124 °C
O=C(/C=C/n1cnc(-c2cc(C(F)(F)F)cc(C(F)(F)F)c2)n1)N1CC(F)(F)C1 | -0.0138 °C

SMILES | thermal shift ΔTm of Mpro
COc1ccc(/C=C2\CCCN=C2c2cccnc2)c(OC)c1 [GTS 21 dihydrochloride] | 0.00864 °C
N=C(N)N/N=C/c1c(Cl)cccc1Cl [Guanabenz Acetate] | 0.0502 °C
Cc1ccc2c(Cl)cc(Cl)c(O)c2n1 [Chlorquinaldol] | 0.0349 °C
C=CC/C(=N/OS(=O)(=O)O)S[C@@H]1O[C@H](CO)[C@@H](O)[C@H](O)[C@H]1O [Allylglucosinolate monohydrate] | 0.0796 °C
NCc1c[nH]c(=S)n1[C@@H]1CCc2c(F)cc(F)cc2C1 [(R)-Nepicastat HCl] | -0.323 °C
COc1cc(OC)cc(C(=O)Nc2ccc(Cl)c(-c3nc4ccc(N(C)C)cc4[nH]3)c2)c1 [HhAntag] | 0.106 °C
CN(C)CC[C@@H](c1ccc(Cl)cc1)c1ccccn1 [Dexchlorpheniramine Maleate] | -0.141 °C
NCCC(=O)[N-][C@@H](Cc1c[nH]cn1)C(=O)[O-].[Zn+2] [Polaprezinc] | 0.283 °C
CN(CCOc1ccc(CC2SC(=O)NC2=O)cc1)c1ccccn1 (configuration not stated) [Rosiglitazone] | 0.0927 °C
CN(CCOc1ccc(CC2SC(=O)NC2=O)cc1)c1ccccn1 (configuration not stated) [Rosiglitazone maleate] | 0.0712 °C
CN(CCOc1ccc(CC2SC(=O)NC2=O)cc1)c1ccccn1 (configuration not stated) [Rosiglitazone HCl] | 0.0777 °C
C=C[C@@H]1C[C@]1(NC(=O)[C@@H]1C[C@@H](Oc2ncc(OC)c3ccc(Cl)cc23)CN1C(=O)[C@@H](NC(=O)OC(C)(C)C)C(C)(C)C)C(=O)NS(=O)(=O)C1CC1 [Asunaprevir] | -0.112 °C
C[C@H]1C[C@@H]2[C@H]([C@@H](O)C[C@@]3(C)[C@H]2CC[C@]3(O)C(=O)COC(=O)CCC(=O)O)[C@@]2(C)C=CC(=O)C=C12 [Methylprodnisolone Sodium Succinate] | 0.277 °C
CCOC(=O)c1c(C)n(C)c2ccc(O)cc12 [Mecarbinate] | -0.0703 °C
Nc1cc(-c2ccncc2)c[nH]c1=O [Amrinone] | 0.0917 °C
COc1ccc(C[C@@H]2c3cc(OC)c(OC)cc3CC[N@+]2(C)CCC(=O)OCCCCCOC(=O)CC[N@@+]2(C)CCc3cc(OC)c(OC)cc3[C@H]2Cc2ccc(OC)c(OC)c2)cc1OC [Cisatracurium Besylate] | 0.133 °C
COP(=S)(OC)Oc1ccc(Sc2ccc(OP(=S)(OC)OC)cc2)cc1 [Temephos] | 0.242 °C
N#Cc1ccc(Oc2ccc3c(c2)COB3O)cc1 [Crisaborole] | 0.0783 °C
CC(N)C12CC3CC(CC(C3)C1)C2 (configuration not stated) [Rimantadine hydrochloride] | 0.0163 °C
CC(N)C12CC3CC(CC(C3)C1)C2 (configuration not stated) [Rimantadine] | 0.155 °C
CS(=O)(=O)Nc1ccc([N+](=O)[O-])cc1OC1CCCCC1 | -0.0274 °C
COC(=O)C(N)CS [L-Cysteine methyl ester hydrochloride(Acdrile)] | 0.126 °C
Cc1ccc(NS(=O)(=O)c2cccc(C#N)c2)c2[nH]cc(C#N)c12 | 0.233 °C
O=C(O)CC1CC(c2ccccc2)=NO1 (configuration not stated) | 0.0301 °C
c1ccc(/N=N/c2ccccc2)cc1 [Azobenzene] | 0.0674 °C
CN(C)c1ccc(/C=C/C(=O)c2ccc(Br)s2)cc1 | 0.104 °C

A section taken from the entries so far:
SMILES | thermal shift ΔTm of Mpro
NCc1c[nH]c(=S)n1[C@@H]1CCc2c(F)cc(F)cc2C1 [(R)-Nepicastat HCl] | -0.323 °C
COc1cc(OC)cc(C(=O)Nc2ccc(Cl)c(-c3nc4ccc(N(C)C)cc4[nH]3)c2)c1 [HhAntag] | 0.106 °C
CN(C)CC[C@@H](c1ccc(Cl)cc1)c1ccccn1 [Dexchlorpheniramine Maleate] | -0.141 °C
NCCC(=O)[N-][C@@H](Cc1c[nH]cn1)C(=O)[O-].[Zn+2] [Polaprezinc] | 0.283 °C

The list goes on.

SMILES | thermal shift ΔTm of Mpro
Cn1c([N+](=O)[O-])cnc1COC(N)=O [Ronidazole] | 0.162 °C
CCN(c1cc(-c2ccc(CN3CCOCC3)cc2)cc(C(=O)NCc2c(C)cc(C)[nH]c2=O)c1C)C1CCOCC1 | -0.0379 °C
COc1cc(N2CCN(C(C)=O)CC2)ccc1Nc1ncc(Cl)c(Nc2ccc(N3CCN(C(C)=O)CC3)cc2OC)n1 | 0.0545 °C
COc1ccc(C(=O)NCc2ccc(OCCN(C)C)cc2)cc1OC [Itopride hydrochloride] | 0.149 °C
N[C@@H](C(=O)N[C@@H]1C(=O)N2C(C(=O)O)=C(Cl)CS[C@H]12)c1ccccc1 [Cefaclor monohydrate] | 0.0878 °C
CCCCCCCCCCCCCCCC[n+]1ccccc1 [Cetylpyridinium Chloride] | -0.444 °C
CCCCCCCCCCCCCCCC[n+]1ccccc1 [Cetylpyridinium chloride monohydrate] | -0.832 °C
COc1ccc(-c2cc(C(F)F)nn2-c2ccc(S(N)(=O)=O)cc2)cc1F [Deracoxib] | 0.0287 °C
S=C(N/N=C1/CCCc2cccnc21)N1CCN(c2ccccn2)CC1 | -0.073 °C
CC[C@@H]1/C=C(\C)C[C@H](C)C[C@H](OC)[C@H]2O[C@@](O)(C(=O)C(=O)N3CCCC[C@H]3C(=O)O[C@H](/C(C)=C/[C@@H]3CC[C@H](Cl)[C@H](OC)C3)[C@H](C)[C@@H](O)CC1=O)[C@H](C)C[C@@H]2OC [Pimecrolimus] | -0.585 °C
CCCN1CCO[C@@H]2c3cc(O)ccc3OC[C@H]21 | -0.726 °C
O=C(O)c1cc(N(Cc2ccccc2O)Cc2ccccc2O)ccc1O [lavendustin B] | -0.191 °C
Cc1ccc(-n2nccn2)c(C(=O)N2CCN(c3nc4cc(Cl)ccc4o3)CC[C@H]2C)c1 [Suvorexant (MK-4305)] | 0.0275 °C
OC[C@H]1O[C@@H](O[C@@H]2[C@@H](CO)OC(O)(CO)[C@H]2O)[C@H](O)[C@@H](O)[C@H]1O (mixture of isomers) [Lactulose] | 0.578 °C
CCCCC(=O)N(Cc1ccc(-c2ccccc2-c2nnn[nH]2)cc1)[C@H](C(=O)O)C(C)C.CCOC(=O)[C@H](C)C[C@@H](Cc1ccc(-c2ccccc2)cc1)NC(=O)CCC(=O)O | -0.15 °C
O=c1c(O[C@@H]2O[C@H](CO)[C@@H](O)[C@H](O)[C@H]2O[C@@H]2OC[C@@H](O)[C@H](O)[C@H]2O)c(-c2ccc(O)cc2)oc2cc(O)cc(O)c12 [Leucoside] | 0.085 °C
C=CC(=O)Nc1cc(Nc2nccc(-n3cc(CN(C)C)c(-c4ccccc4)n3)n2)c(OC)cc1N1CCOCC1 [Lazertinib] | 0.254 °C
Cc1cc(Nc2nc(N[C@@H](C)c3ncc(F)cn3)ncc2Cl)[nH]n1 | -0.0951 °C
CC(C)(C)Oc1cccc2nc(N)nc(N)c12 | 0.0308 °C
Nc1nc2[nH]cc(CCc3ccc(C(=O)N[C@@H](CCC(=O)O)C(=O)O)cc3)c2c(=O)[nH]1 [Pemetrexed Disodium Hydrate] | 0.0991 °C
Nc1nc2[nH]cc(CCc3ccc(C(=O)N[C@@H](CCC(=O)O)C(=O)O)cc3)c2c(=O)[nH]1 [Pemetrexed disodium] | 0.224 °C
Cc1ccc(S(=O)(=O)Nc2cc(-c3ccc(C#N)s3)ccc2C)cc1 | -0.069 °C
COCCc1ccc(OCC(O)CNC(C)C)cc1 (configuration not stated) [Metoprolol Tartrate] | 0.0373 °C
CCN1CCN(Cc2ccc(Nc3ncc(F)c(-c4cc(F)c5nc(C)n(C(C)C)c5c4)n3)nc2)CC1 [Abemaciclib] | 0.0109 °C
CCN1CCN(Cc2ccc(Nc3ncc(F)c(-c4cc(F)c5nc(C)n(C(C)C)c5c4)n3)nc2)CC1 | -0.151 °C
